Source: patent US7090843B1, “Recombinant anti-CD30 antibodies and uses thereof” (Seattle Genetics, Inc., priority 2000, dated 2006)
Some entries share one result that the patent states for a list of compounds.

System: L540cy Hodgkin's disease xenografts
Test: Disseminated L540cy Hodgkin's disease xenograft
Type: in vivo, SCID mice
Settings: 1 mg/kg/injection i.p. q2d×10 from d1 (FIG. 5A)
Protocol: Human tumor xenograft models: Female C.B-17 SCID mice, obtained from Taconic (Germantown, N.Y.) at 4–6 weeks of age, were used for all efficacy studies. To establish xenograft models of Hodgkin's disease, L540cy (HD) cells were harvested from cell culture, washed in ice cold phosphate buffered saline (PBS), resuspended in PBS, and maintained on ice until implantation. For disseminated disease models, mice were injected intravenously through the tail vein with 10^7 L540cy cells. Solid tumor xenografts were established by injecting mice subcutaneously (s.c.) with 2×10^7 L540cy cells. For therapeutic evaluation the indicated treatment doses and schedules were used.
Administration of AC10 and HeFi-1: Disseminated L540cy tumor bearing mice received 10^7 cells through the tail vein on d0 followed by therapy initiated on d1. Treated mice received i.p. injections of either AC10 or HeFi-1 every two days for a total of 10 injections, q2d×10, at 1 mg/kg/injection.

B1: HeFi-1: anti-CD30 mAb produced by immunizing mice with the L428 Hodgkin's disease cell line (antibody, V domains shown)
VH: EVKLVESGGGLVQPGGSLRLSCATSGFTFSDYYMNWVRQPPGKALEWLGFIRNKANGYTTEFSASVMGRFTISRDDSQSILYLQMNTLRAEDSATYYCARDPPYGNPHYYAMDYWGQGTSVTVSS
VL: DIVLTQSPASLAVSLGQRATISCRASKSVSASGYNYMHWYQQKAGQPPKLLIHLASNLESGVPARFSGSGSGTDFTLNIHPVEEEDASTYYCQHSGELPFTFGSGTKLEIK
Q: Which survival does the source give for B1 here?
A: Its survival is over 46 days.
